In PubChem BioAssay AID330 (DTP/NCI, 2004):
The list shows only some results of the screen, not a fair sample: it is rich in T/C values a quarter to a half above the control, in often repeated tests (any T/C) and in doses without a T/C. Other doses and runs of a compound stand elsewhere. T/C gives the treated animals as a percentage of the vehicle group. Some entries give survivors of the animals treated and no T/C: the source files T/C as zero there, which appears to mark a toxic dose or a test without result, not a measured value. Some doses without a T/C left all or most animals alive at the check, yet need not have been tolerated: the source hardly ever lists a survival T/C far under the control, and the zero likely stands for such cases as well. Survivors were counted at the toxicity check, usually on the fifth day, unless a day is given; later deaths do not show. Schedule codes are those of the source, read here as Q, the interval in days (D) or hours (H), X, the number of doses. Where survival is the endpoint, this PubChem deposit counts one and a half times the control or more as active, and values a quarter to a half above the control carry no call in these data; other NCI protocols may use other cut-offs. Some doses were run more than once; the results are listed from low to high. Some T/C values are followed by the survivors on the day toxicity was checked, most often the fifth; without a count, all were alive then.

System: P388 leukemia ip, CD2F1 mice, survival T/C
Experiment: NCI In Vivo Anticancer Drug Screen. Data for tumor model P388 Leukemia (intraperitoneal) in CD2F1 (CDF1) mice
Conditions: T/C endpoint: median survival time, higher T/C = longer survival
[1] = dose: 100.0 mg/kg/injection, schedule: Q01DX009 (ip), vehicle: saline with Tween-80
[2] = dose: 200.0 mg/kg/injection, schedule: Q01DX009 (ip), vehicle: saline with Tween-80
[3] = dose: 120.0 mg/kg/injection, schedule: Q01DX005 (ip), vehicle: saline with Tween-80
[4] = dose: 240.0 mg/kg/injection, schedule: Q01DX005 (ip), vehicle: saline with Tween-80
[5] = dose: 50.0 mg/kg/injection, schedule: Q01DX009 (ip), vehicle: saline
[6] = dose: 200.0 mg/kg/injection, schedule: Q01DX009 (ip), vehicle: saline

With `CCCCNC(C)C1(O)Cc2c(O)c3c(c(O)c2C(OC2CC(N)C(O)C(C)O2)C1)C(=O)c1c(OC)cccc1C3=O` (configuration not stated) as the compound, how does the T/C (dose: 1.25 mg/kg/injection, schedule: Q01DX009 (ip), vehicle: water) read?
The T/C was 130 and 132 % of control.

And the T/C (dose: 2.5 mg/kg/injection, schedule: Q01DX009 (ip), vehicle: water)?
The T/C was 126 and 137 % of control.

And the T/C (dose: 5.0 mg/kg/injection, schedule: Q01DX009 (ip), vehicle: water)?
Its T/C is 140 and 143 % of control.

`CC(=O)n1c(Cl)c(/C=N/Nc2ccccc2[N+](=O)[O-])c2ccccc21` was tested. Which survivor count (dose: 200.0 mg/kg/injection, schedule: Q01DX001 (ip), vehicle: Klucel (hydroxypropylcellulose) (HPC)) did it give?
The survivor count was 5 of 6.

What about the survivor count (dose: 400.0 mg/kg/injection, schedule: Q01DX001 (ip), vehicle: Klucel (hydroxypropylcellulose) (HPC)) of the same compound?
Its survivor count is 6 of 6.

With `N#CC(/C=C/c1ccccc1)Nc1ccccc1N` (configuration not stated) as the compound, how does the T/C (dose: 200.0 mg/kg/injection, schedule: Q01DX001 (ip), vehicle: saline with Tween-80) read?
Its T/C is 131 % of control.

How did the survivor count (dose: 25.0 mg/kg/injection, schedule: Q01DX009 (ip), vehicle: saline with Tween-80) turn out when `C[N+](C)(C)C[c-]1[c-][c-][c-][c-]1.[Fe].[c-]1[c-][c-][cH-][c-]1` was run?
The survivor count was 0 of 6.

What about the survivor count (dose: 50.0 mg/kg/injection, schedule: Q01DX009 (ip), vehicle: saline with Tween-80) of the same compound?
The survivor count was 0 of 6.

What about the survivor count [1] of the same compound?
The survivor count was 0 of 6.

What about the survivor count [2] of the same compound?
Its survivor count is 0 of 6.

What does the source list for `CC(C)(C)P(c1ccccc1)C(C)(C)C`?
survivor count (dose: 200.0 mg/kg/injection, schedule: Q04DX002 (ip), vehicle: saline with Tween-80): 5 of 6; survivor count (dose: 400.0 mg/kg/injection, schedule: Q04DX002 (ip), vehicle: saline with Tween-80): 0 of 6

Which results are given for `CCN(CC)CCCC(C)Nc1cc(C)c2nc(C)cc(C)c2c1C` (configuration not stated)?
survivor count [1]: 4 of 6; survivor count [2]: 2 of 6

For `COc1cc2ccc(CC(=S)N3CCOCC3)cc2cc1OC`, which survivor count (dose: 400.0 mg/kg/injection, schedule: Q01DX009 (ip), vehicle: saline with Tween-80) is on record?
Its survivor count is 6 of 6.

Which T/C (dose: 5.6 mg/kg/injection, schedule: Q01DX005 (ip), vehicle: water) does the source give for `Cc1c(-c2ccc(-c3ccccc3F)cc2)nc2ccc(F)cc2c1C(=O)O` here?
Its T/C is 142 % of control.

And the T/C (dose: 11.25 mg/kg/injection, schedule: Q01DX005 (ip), vehicle: water)?
Its T/C is 141 % of control.

What about the T/C (dose: 22.5 mg/kg/injection, schedule: Q01DX005 (ip), vehicle: water, evaluated on day 20) of the same compound?
The T/C was 139 % of control.

What about the T/C (dose: 22.5 mg/kg/injection, schedule: Q01DX005 (ip), vehicle: water, evaluated on day 30) of the same compound?
The T/C was 149 % of control.

What about the T/C (dose: 45.0 mg/kg/injection, schedule: Q01DX005 (ip), vehicle: water) of the same compound?
Its T/C is 143 % of control.

And the T/C (dose: 90.0 mg/kg/injection, schedule: Q01DX005 (ip), vehicle: water)?
The T/C was 143 % of control.

And the survivor count (dose: 180.0 mg/kg/injection, schedule: Q01DX005 (ip), vehicle: water)?
The survivor count was 3 of 6.

With `CC(C)CCC[C@@H](C)[C@H]1CC[C@H]2[C@@H]3CC[C@H]4C[C@H](N)CC[C@]4(C)[C@H]3CC[C@]12C` as the compound, how does the survivor count (dose: 100.0 mg/kg/injection, schedule: Q01DX005 (ip), vehicle: Klucel (hydroxypropylcellulose) (HPC)) read?
The survivor count was 0 of 5.

And the survivor count (dose: 200.0 mg/kg/injection, schedule: Q01DX005 (ip), vehicle: Klucel (hydroxypropylcellulose) (HPC))?
The survivor count was 0 of 5.

`Cn1c2c(c3cc(Cl)ccc31)-c1ncncc1CC2` was tested. Which survivor count (dose: 200.0 mg/kg/injection, schedule: Q04DX002 (ip), vehicle: Klucel (hydroxypropylcellulose) (HPC)) did it give?
Its survivor count is 5 of 5.

And the survivor count (dose: 400.0 mg/kg/injection, schedule: Q04DX002 (ip), vehicle: Klucel (hydroxypropylcellulose) (HPC))?
The survivor count was 5 of 5.

How did the survivor count [3] turn out when `O=C(/C=C/C(=O)Nc1ccc(F)cc1F)Nc1ccc(F)cc1F` was run?
The survivor count was 6 of 6.

With `FC(F)(Cl)c1nc2nc(Cl)c(Cl)nc2[nH]1` as the compound, how does the survivor count (dose: 200.0 mg/kg/injection, schedule: Q01DX009 (ip), vehicle: other) read?
Its survivor count is 5 of 6.

What about the T/C (dose: 400.0 mg/kg/injection, schedule: Q04DX003 (ip), vehicle: other) of the same compound?
Its T/C is 125 % of control.

For `CCOC(=O)C1C2CCC(O2)C1C#N` (configuration not stated), which survivor count (dose: 60.0 mg/kg/injection, schedule: Q01DX005 (ip), vehicle: saline with Tween-80) is on record?
Its survivor count is 3 of 6.

What about the survivor count [3] of the same compound?
The survivor count was 0 of 6.

And the survivor count [4]?
The survivor count was 0 of 6.

`CCn1c(=O)c2[nH]c(Br)nc2n(C2CC2)c1=O` was tested. Which survivor count (dose: 200.0 mg/kg/injection, schedule: Q01DX009 (ip), vehicle: Klucel (hydroxypropylcellulose) (HPC)) did it give?
The survivor count was 3 of 6.

For `NCCCCS(=O)(=O)Nc1ccc(Nc2c3ccccc3nc3cc([N+](=O)[O-])ccc23)cc1`, which T/C (dose: 33.0 mg/kg/injection, schedule: Q04DX003 (ip), vehicle: saline) is on record?
Its T/C is 140 % of control.

What about the survivor count (dose: 300.0 mg/kg/injection, schedule: Q04DX003 (ip), vehicle: water) of the same compound?
The survivor count was 2 of 8.

What does the source list for `O=C(OCN1C(=O)C2C3C=CC(C2C1=O)C1C2C(=O)N(COC(=O)C4CCCN4)C(=O)C2C31)C1CCCN1` (configuration not stated)?
T/C [5]: 128 % of control; survivor count [6]: 4 of 6

Which survivor count (dose: 200.0 mg/kg/injection, schedule: Q01DX005 (ip), vehicle: saline) does the source give for `C=CCC(C=C=CCN(C)C)CO` (configuration not stated) here?
The survivor count was 0 of 6.

For `CN(C)c1ccc(C2(c3ccc(N(C)C)cc3)c3ccccc3C(=O)N2N)cc1`, which survivor count (dose: 200.0 mg/kg/injection, schedule: Q01DX005 (ip), vehicle: saline with Tween-80) is on record?
The survivor count was 4 of 6.

`COc1ccc(/C=N/N=c2/sc3ccccc3n2CC(=O)O)cc1` was tested. Which survivor count (dose: 400.0 mg/kg/injection, schedule: Q01DX001 (ip), vehicle: saline with Tween-80) did it give?
Its survivor count is 6 of 6.

With `NCC(=O)O.[Cl-].[Cl-].[Cl-].[Cl-].[Pt+2]` as the compound, how does the T/C (dose: 25.0 mg/kg/injection, schedule: Q01DX009 (ip), vehicle: saline) read?
The T/C was 140 % of control [5 of 6 alive].

And the T/C (dose: 33.0 mg/kg/injection, schedule: Q01DX009 (ip), vehicle: saline)?
Its T/C is 126 % of control.

What about the T/C [5] of the same compound?
The T/C was 138 % of control [5 of 6 alive].

What about the survivor count [5] of the same compound?
The survivor count was 2 of 6.

And the survivor count (dose: 75.0 mg/kg/injection, schedule: Q01DX009 (ip), vehicle: saline)?
The survivor count was 0 of 6.

What about the survivor count (dose: 100.0 mg/kg/injection, schedule: Q01DX009 (ip), vehicle: saline) of the same compound?
Its survivor count is 2 of 6.

What about the survivor count [6] of the same compound?
The survivor count was 0 of 6.

What does the source list for `CC1(C)CC[C@]2(C(=O)O)CC[C@]3(C)C(=CC[C@@H]4[C@@]5(C)C[C@H](O)[C@H](O)[C@@](C)(C(=O)O)[C@@H]5CC[C@]43C)[C@@H]2C1`?
survivor count (dose: 17.0 mg/kg/injection, schedule: Q01DX005 (ip), vehicle: Klucel (hydroxypropylcellulose) (HPC)): 6 of 6; survivor count (dose: 34.0 mg/kg/injection, schedule: Q01DX005 (ip), vehicle: Klucel (hydroxypropylcellulose) (HPC)): 6 of 6; survivor count (dose: 68.0 mg/kg/injection, schedule: Q01DX005 (ip), vehicle: Klucel (hydroxypropylcellulose) (HPC)): 4 of 6; survivor count (dose: 136.0 mg/kg/injection, schedule: Q01DX005 (ip), vehicle: Klucel (hydroxypropylcellulose) (HPC)): 0 of 6

`COC(C)C(O)(C(=O)OCC1=CC[N+]2([O-])CCC(O)C12)C(C)(C)O` (configuration not stated) was tested. Which T/C (dose: 400.0 mg/kg/injection, schedule: Q01DX005 (ip), vehicle: other) did it give?
Its T/C is 129 % of control.

For `CCOC(=O)c1c(Cl)c(CC)c(N=[N+]=[N-])n2c1nc1ccccc12`, which survivor count [4] is on record?
Its survivor count is 3 of 6.

With `O=c1c2ccccc2nc(CCN(CCCl)CCCl)n1-c1ccc(Cl)cc1` as the compound, how does the T/C (dose: 100.0 mg/kg/injection, schedule: Q01DX001 (ip), vehicle: saline) read?
The T/C was 135 and 138 % of control.

And the T/C (dose: 200.0 mg/kg/injection, schedule: Q01DX001 (ip), vehicle: saline)?
The T/C was 147 % of control.

And the survivor count (dose: 400.0 mg/kg/injection, schedule: Q01DX001 (ip), vehicle: saline)?
The survivor count was 1 of 6.

For `O=C(O)C1CSCN1` (configuration not stated), which survivor count (dose: 100.0 mg/kg/injection, schedule: Q01DX009 (ip), vehicle: water) is on record?
The survivor count was 5 of 6.

What about the survivor count (dose: 200.0 mg/kg/injection, schedule: Q01DX009 (ip), vehicle: water) of the same compound?
Its survivor count is 2 of 6.

How did the T/C (dose: 4.0 mg/kg/injection, schedule: Q01DX009 (ip), vehicle: saline with Tween-80) turn out when `C=C1C(=O)OCC1(C(=O)OCC)C(=O)OCC` was run?
The T/C was 129 % of control.

And the T/C (dose: 16.0 mg/kg/injection, schedule: Q01DX009 (ip), vehicle: saline with Tween-80)?
Its T/C is 134 % of control.

And the T/C (dose: 32.0 mg/kg/injection, schedule: Q01DX009 (ip), vehicle: saline with Tween-80)?
The T/C was 147 % of control.

And the survivor count (dose: 64.0 mg/kg/injection, schedule: Q01DX009 (ip), vehicle: saline with Tween-80)?
Its survivor count is 1 of 6.
